Laboratory results taken from patent US7473700B2, “1,2,4-triazole derivatives, processes for the preparation thereof, and pharmaceutical compositions containing the same” (CJ Corporation, priority 2002, dated 2009).
Some of these results come from one statement about several compounds together.

These molecules were tested against T1, COX-2 (Mus musculus, UniProt Q05769) (assay: Assay for the COX-2 inhibitory activity using RAW 264.7 cell line (PGE2 inhibition)). Settings: COX-2 at 10 nM versus COX-1 at 1 μM, compared with the reference Valdecoxib.
T1 construct: host or cells: RAW 264.7 cells, aspirin-pretreated, then induced with interferon gamma and LPS
T1 sequence (Q05769 18-604): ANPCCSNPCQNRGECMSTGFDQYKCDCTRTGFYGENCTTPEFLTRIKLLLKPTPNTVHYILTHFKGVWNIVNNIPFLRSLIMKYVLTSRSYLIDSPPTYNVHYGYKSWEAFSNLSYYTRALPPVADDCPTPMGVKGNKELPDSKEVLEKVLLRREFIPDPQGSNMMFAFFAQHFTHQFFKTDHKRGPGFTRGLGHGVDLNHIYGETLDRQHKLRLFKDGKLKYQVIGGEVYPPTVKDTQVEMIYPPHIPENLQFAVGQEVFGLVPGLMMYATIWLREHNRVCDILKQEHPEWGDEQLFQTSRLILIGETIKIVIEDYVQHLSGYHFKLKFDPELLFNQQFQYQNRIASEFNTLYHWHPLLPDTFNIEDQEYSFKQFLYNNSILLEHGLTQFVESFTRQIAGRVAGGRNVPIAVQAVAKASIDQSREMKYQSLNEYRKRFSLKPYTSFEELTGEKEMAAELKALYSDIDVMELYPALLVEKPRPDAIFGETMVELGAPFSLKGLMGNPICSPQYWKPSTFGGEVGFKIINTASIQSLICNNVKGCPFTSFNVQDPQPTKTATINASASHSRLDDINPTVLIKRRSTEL
Type: cell-based
Procedure: Each well was treated with 250 μM of aspirin and incubated at 37° C. for 2 hours. After the culture media were replaced with new culture media, the new culture media were treated with a test compound (10 nM) and incubated for 30 minutes. Then, each well was treated with interferon γ (100 units/ml) and lipopolysaccharide (LPS, 100 ng/ml) and incubated for 18 hours. The culture media were transferred to other test tubes. The concentration of PGE2 was quantified by means of the EIA kit (Cayman Chemicals).
The percentages of the COX inhibition were calculated according to the following equation: % Inhibition=(concentration of PGE2 in test compound-untreated sample−concentration of PGE2 in test compound-treated sample)/(concentration of PGE2 in test compound-untreated sample)×100

| Compound | inhibition (%) ratios of COX-2 to COX-1 |
| --- | --- |
| COc1ccc(-c2nc(O)nn2-c2ccc(S(N)(=O)=O)cc2)cc1 [Example 16, 4-[3-hydroxy-5-(4-methoxyphenyl)-1,2,4-triazole-1-yl]-benzenesulfonamide] | significantly higher than that in the reference, Valdecoxib |
| CCOc1ccc(-c2nc(O)nn2-c2ccc(S(N)(=O)=O)cc2)cc1 [Example 17, 4-[3-hydroxy-5-(4-ethoxyphenyl)-1,2,4-triazole-1-yl]-benzenesulfonamide] | significantly higher than that in the reference, Valdecoxib |
| NS(=O)(=O)c1ccc(-n2nc(O)nc2-c2ccc(F)cc2)cc1 [Example 18, 4-[3-hydroxy-5-(4-fluorophenyl)-1,2,4-triazole-1-yl]-benzenesulfonamide] | significantly higher than that in the reference, Valdecoxib |
| NS(=O)(=O)c1ccc(-n2nc(O)nc2-c2ccc(Br)cc2)cc1 [Example 19, 4-[3-hydroxy-5-(4-bromophenyl)-1,2,4-triazole-1-yl]-benzenesulfonamide] | significantly higher than that in the reference, Valdecoxib |
| COc1ccc(-c2nc(O)nn2-c2ccc(S(N)(=O)=O)cc2)cc1F [Example 20, 4-[3-hydroxy-5-(3-fluoro-4-methoxyphenyl)-1,2,4-triazole-1-yl]-benzenesulfonamide] | significantly higher than that in the reference, Valdecoxib |
| NS(=O)(=O)c1ccc(-n2nc(S)nc2-c2ccccc2)cc1 [Example 21, 4-(3-mercapto-5-phenyl-1,2,4-triazole-1-yl)-benzenesulfonamide] | significantly higher than that in the reference, Valdecoxib |
| CS(=O)(=O)c1ccc(-n2nc(O)nc2-c2ccccc2)cc1 [Example 22, 1-(4-methanesulfonylphenyl)-5-phenyl-1H-1,2,4-triazole-3-ol] | significantly higher than that in the reference, Valdecoxib |
| COc1ccc(-c2nc(O)nn2-c2ccc(S(C)(=O)=O)cc2)cc1 [Example 23, 1-(4-methanesulfonylphenyl)-5-(4-methoxyphenyl)-1H-1,2,4-triazole-3-ol] | significantly higher than that in the reference, Valdecoxib |
| COc1ccc(-c2nc(OC)nn2-c2ccc(S(N)(=O)=O)cc2)cc1 [Example 24, 4-[3-methoxy-5-(4-methoxyphenyl)-1,2,4-triazole-1-yl]-benzenesulfonamide] | significantly higher than that in the reference, Valdecoxib |
| COc1nc(-c2ccccc2)n(-c2ccc(S(N)(=O)=O)cc2)n1 [Example 25, 4-(3-methoxy-5-phenyl-1,2,4-triazole-1-yl)-benzenesulfonamide] | significantly higher than that in the reference, Valdecoxib |
| COc1nc(-c2ccc(F)cc2)n(-c2ccc(S(N)(=O)=O)cc2)n1 [Example 26, 4-[3-methoxy-5-(4-fluorophenyl)-1,2,4-triazole-1-yl]-benzenesulfonamide] | significantly higher than that in the reference, Valdecoxib |
| COc1nc(-c2ccc(Br)cc2)n(-c2ccc(S(N)(=O)=O)cc2)n1 [Example 27, 4-[3-methoxy-5-(4-bromophenyl)-1,2,4-triazole-1-yl]-benzenesulfonamide] | significantly higher than that in the reference, Valdecoxib |
| COc1nc(-c2ccc(OC)c(F)c2)n(-c2ccc(S(N)(=O)=O)cc2)n1 [Example 28, 4-[3-methoxy-5-(3-fluoro-4-methoxyphenyl)-1,2,4-triazole-1-yl]-benzenesulfonamide] | significantly higher than that in the reference, Valdecoxib |
| CSc1nc(-c2ccccc2)n(-c2ccc(S(N)(=O)=O)cc2)n1 [Example 29, 4-(3-methylthio-5-phenyl-1,2,4-triazole-1-yl)-benzenesulfonamide] | significantly higher than that in the reference, Valdecoxib |
| CCOc1nc(-c2ccc(OC)cc2)n(-c2ccc(S(N)(=O)=O)cc2)n1 [Example 30, 4-[3-ethoxy-5-(4-methoxyphenyl)-1,2,4-triazole-1-yl]-benzenesulfonamide] | significantly higher than that in the reference, Valdecoxib |
| CCOc1nc(-c2ccccc2)n(-c2ccc(S(N)(=O)=O)cc2)n1 [Example 31, 4-(3-ethoxy-5-phenyl-1,2,4-triazole-1-yl)-benzenesulfonamide] | significantly higher than that in the reference, Valdecoxib |
| CCOc1nc(-c2ccc(F)cc2)n(-c2ccc(S(N)(=O)=O)cc2)n1 [Example 32, 4-[3-ethoxy-5-(4-fluorophenyl)-1,2,4-triazole-1-yl]-benzenesulfonamide] | significantly higher than that in the reference, Valdecoxib |
| CCOc1nc(-c2ccc(OC)c(F)c2)n(-c2ccc(S(N)(=O)=O)cc2)n1 [Example 33, 4-[3-ethoxy-5-(3-fluoro-4-methoxyphenyl)-1,2,4-triazole-1-yl]-benzenesulfonamide] | significantly higher than that in the reference, Valdecoxib |
| CCSc1nc(-c2ccccc2)n(-c2ccc(S(N)(=O)=O)cc2)n1 [Example 34, 4-(3-ethylthio-5-phenyl-1,2,4-triazole-1-yl)-benzenesulfonamide] | significantly higher than that in the reference, Valdecoxib |
| CCCOc1nc(-c2ccc(OC)cc2)n(-c2ccc(S(N)(=O)=O)cc2)n1 [Example 35, 4-[3-propoxy-5-(4-methoxyphenyl)-1,2,4-triazole-1-yl]-benzenesulfonamide] | significantly higher than that in the reference, Valdecoxib |
| CCCOc1nc(-c2ccc(F)cc2)n(-c2ccc(S(N)(=O)=O)cc2)n1 [Example 36, 4-[3-propoxy-5-(4-fluorophenyl)-1,2,4-triazole-1-yl]-benzenesulfonamide] | significantly higher than that in the reference, Valdecoxib |
| COc1ccc(-c2nc(OC3CCCC3)nn2-c2ccc(S(N)(=O)=O)cc2)cc1 [Example 37, 4-[3-cyclopentyloxy-5-(4-methoxyphenyl)-1,2,4-triazole-1-yl]-benzenesulfonamide] | significantly higher than that in the reference, Valdecoxib |
| NS(=O)(=O)c1ccc(-n2nc(OC3CCCC3)nc2-c2ccc(F)cc2)cc1 [Example 38, 4-[3-cyclopentyloxy-5-(4-fluorophenyl)-1,2,4-triazole-1-yl]-benzenesulfonamide] | significantly higher than that in the reference, Valdecoxib |
| COc1ccc(-c2nc(OC3CCCCC3)nn2-c2ccc(S(N)(=O)=O)cc2)cc1 [Example 39, 4-[3-cyclohexyloxy-5-(4-methoxyphenyl)-1,2,4-triazole-1-yl]-benzenesulfonamide] | significantly higher than that in the reference, Valdecoxib |
| NS(=O)(=O)c1ccc(-n2nc(OC3CCCCC3)nc2-c2ccc(F)cc2)cc1 [Example 40, 4-[3-cyclohexyloxy-5-(4-fluorophenyl)-1,2,4-triazole-1-yl]-benzenesulfonamide] | significantly higher than that in the reference, Valdecoxib |
| COc1ccc(-c2nc(OCC#N)nn2-c2ccc(S(N)(=O)=O)cc2)cc1 [Example 41, 4-[3-cyanomethoxy-5-(4-methoxyphenyl)-1,2,4-triazole-1-yl]-benzenesulfonamide] | significantly higher than that in the reference, Valdecoxib |
| N#CCOc1nc(-c2ccc(F)cc2)n(-c2ccc(S(N)(=O)=O)cc2)n1 [Example 42, 4-[3-cyanomethoxy-5-(4-fluorophenyl)-1,2,4-triazole-1-yl]-benzenesulfonamide] | significantly higher than that in the reference, Valdecoxib |
| C#CCOc1nc(-c2ccc(OC)cc2)n(-c2ccc(S(N)(=O)=O)cc2)n1 [Example 43, 4-[3-prop-2-ynyloxy-5-(4-methoxyphenyl)-1,2,4-triazole-1-yl]-benzenesulfonamide] | significantly higher than that in the reference, Valdecoxib |
| C#CCOc1nc(-c2ccc(F)cc2)n(-c2ccc(S(N)(=O)=O)cc2)n1 [Example 44, 4-[3-prop-2-ynyloxy-5-(4-fluorophenyl)-1,2,4-triazole-1-yl]-benzenesulfonamide] | significantly higher than that in the reference, Valdecoxib |
| C#CCSc1nc(-c2ccccc2)n(-c2ccc(S(N)(=O)=O)cc2)n1 [Example 45, 4-(3-prop-2-ynylthio-5-phenyl-1,2,4-triazole-1-yl)-benzenesulfonamide] | significantly higher than that in the reference, Valdecoxib |
